In article PMC13503143:
No constants are given. Whether binding was seen depends on the method and setting. Binding seen in cells or lysates may run through a third protein. Some results given as binding are weak or reduced against the parent protein; the word gives no strength.

By UniProt entry, the sequences of proteins in these tests, tags left out. Where a name states a change or a piece, a line headed by the entry shows the natural chain unless it says otherwise. Chains listed by the source or under a name are the forms on record and can include a tag or linker.
V5-DNAJB6b WT (O75190, form named): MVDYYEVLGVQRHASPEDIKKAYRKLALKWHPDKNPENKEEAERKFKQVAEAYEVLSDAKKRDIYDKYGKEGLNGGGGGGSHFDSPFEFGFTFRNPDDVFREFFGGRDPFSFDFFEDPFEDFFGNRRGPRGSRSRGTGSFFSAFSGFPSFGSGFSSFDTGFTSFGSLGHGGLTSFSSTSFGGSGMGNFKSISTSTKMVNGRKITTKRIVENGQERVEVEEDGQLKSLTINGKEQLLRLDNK
V5-DNAJB6b Y53E (O75190, form named): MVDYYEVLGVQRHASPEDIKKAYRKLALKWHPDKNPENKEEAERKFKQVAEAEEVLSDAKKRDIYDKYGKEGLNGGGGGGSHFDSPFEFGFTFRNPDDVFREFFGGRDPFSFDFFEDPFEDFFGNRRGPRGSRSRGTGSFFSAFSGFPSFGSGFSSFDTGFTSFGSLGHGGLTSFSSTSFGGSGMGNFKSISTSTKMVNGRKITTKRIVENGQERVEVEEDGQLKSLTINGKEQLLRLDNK
V5-DNAJB6b Y53F (O75190, form named): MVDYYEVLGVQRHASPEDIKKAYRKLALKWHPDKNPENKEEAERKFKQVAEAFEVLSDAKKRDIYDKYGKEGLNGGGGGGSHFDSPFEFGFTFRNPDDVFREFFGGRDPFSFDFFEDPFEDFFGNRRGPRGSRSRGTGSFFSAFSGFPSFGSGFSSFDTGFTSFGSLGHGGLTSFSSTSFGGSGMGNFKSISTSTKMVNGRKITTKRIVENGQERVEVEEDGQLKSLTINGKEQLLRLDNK
UniProt P0DMV8: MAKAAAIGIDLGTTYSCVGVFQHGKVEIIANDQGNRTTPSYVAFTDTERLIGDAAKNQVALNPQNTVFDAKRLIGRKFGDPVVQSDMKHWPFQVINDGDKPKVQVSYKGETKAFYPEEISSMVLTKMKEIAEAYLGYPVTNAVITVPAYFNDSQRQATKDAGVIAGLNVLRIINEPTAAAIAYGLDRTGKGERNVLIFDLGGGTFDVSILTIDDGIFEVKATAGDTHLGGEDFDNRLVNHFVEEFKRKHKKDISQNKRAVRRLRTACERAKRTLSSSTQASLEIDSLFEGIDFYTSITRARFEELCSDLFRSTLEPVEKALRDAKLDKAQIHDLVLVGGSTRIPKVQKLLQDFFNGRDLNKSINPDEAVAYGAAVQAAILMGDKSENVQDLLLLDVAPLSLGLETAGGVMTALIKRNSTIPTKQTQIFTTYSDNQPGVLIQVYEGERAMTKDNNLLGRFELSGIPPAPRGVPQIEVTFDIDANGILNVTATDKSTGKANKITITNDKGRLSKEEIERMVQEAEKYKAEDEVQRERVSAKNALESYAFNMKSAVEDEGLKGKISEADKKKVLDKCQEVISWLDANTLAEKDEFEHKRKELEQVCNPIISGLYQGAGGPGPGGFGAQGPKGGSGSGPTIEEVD
UniProt P11142: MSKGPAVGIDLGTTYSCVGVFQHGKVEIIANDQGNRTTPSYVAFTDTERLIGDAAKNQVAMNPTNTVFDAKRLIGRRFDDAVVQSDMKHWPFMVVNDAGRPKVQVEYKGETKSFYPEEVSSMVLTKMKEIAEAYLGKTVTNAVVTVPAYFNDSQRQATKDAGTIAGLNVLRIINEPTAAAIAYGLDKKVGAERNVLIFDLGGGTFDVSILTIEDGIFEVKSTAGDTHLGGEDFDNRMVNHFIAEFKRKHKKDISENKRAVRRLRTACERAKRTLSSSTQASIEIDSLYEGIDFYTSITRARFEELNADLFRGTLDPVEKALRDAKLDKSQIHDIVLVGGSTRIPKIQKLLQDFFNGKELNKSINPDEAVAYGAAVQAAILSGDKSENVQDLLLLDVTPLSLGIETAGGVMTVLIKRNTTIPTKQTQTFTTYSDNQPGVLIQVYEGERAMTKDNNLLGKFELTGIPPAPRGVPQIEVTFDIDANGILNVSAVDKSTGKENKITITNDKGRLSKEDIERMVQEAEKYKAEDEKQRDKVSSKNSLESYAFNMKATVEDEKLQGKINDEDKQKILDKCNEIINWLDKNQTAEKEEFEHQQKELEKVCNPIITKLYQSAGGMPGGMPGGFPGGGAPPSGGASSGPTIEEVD

Experiments:
V5-DNAJB6b WT (human) [1] = molecular target: V5-DNAJB6b WT (human) (UniProt O75190); assay: co-IP; SH-SY5Y cells co-expressing EGFP-tau P301L and V5-DNAJB6b constructs for 48 h; lysate in 50 mM Tris-HCl pH 7.5, 150 mM NaCl, 0.5% Triton X-100, 1 mM EDTA; anti-V5 antibody, Protein G magnetic beads, 4 °C; blots for HSPA8 and HSPA1A
V5-DNAJB6b Y53E (human) [2] = molecular target: V5-DNAJB6b Y53E (human) (UniProt O75190); assay: as above
V5-DNAJB6b Y53F (human) [3] = molecular target: V5-DNAJB6b Y53F (human) (UniProt O75190); assay: as above
[4] = molecular target: endogenous DNAJB6b (human (endogenous in SH-SY5Y)) (UniProt O75190); assay: co-IP; SH-SY5Y cells co-expressing EGFP-tau P301L and Flag-HSPA8 WT or E218A/K220A for 48 h; lysate in 50 mM Tris-HCl pH 7.5, 150 mM NaCl, 0.5% Triton X-100, 1 mM EDTA; anti-DNAJB6 antibody to precipitate endogenous DNAJB6b, Protein G magnetic beads, 4 °C
V5-DNAJB6b WT (human) [5] = molecular target: V5-DNAJB6b WT (human) (UniProt O75190); assay: proximity ligation; Duolink In Situ Red, anti-V5 and anti-HSPA8 antibodies, fixed SH-SY5Y cells 48 h after transfection of V5-DNAJB6b constructs; PLA+ cells of DAPI+ cells
V5-DNAJB6b Y53E (human) [6] = molecular target: V5-DNAJB6b Y53E (human) (UniProt O75190); assay: as above
V5-DNAJB6b Y53F (human) [7] = molecular target: V5-DNAJB6b Y53F (human) (UniProt O75190); assay: as above

## HSPA1A (from UniProt P0DMV8 1-641)
V5-DNAJB6b WT (human) [1]
  binding: binds
V5-DNAJB6b Y53E (human) [2]
  binding: binds
V5-DNAJB6b Y53F (human) [3]
  binding: binds

## Flag-HSPA8 WT (from UniProt P11142 1-646)
[4]
  binding: binds

## Flag-HSPA8 E218A/K220A (from UniProt P11142 1-646)
[4]
  binding: binds

## HSPA8 (from UniProt P11142 1-646)
V5-DNAJB6b WT (human) [5]
  binding: binds
V5-DNAJB6b Y53E (human) [6]
  binding: binds
V5-DNAJB6b Y53F (human) [7]
  binding: binds weakly
V5-DNAJB6b WT (human) [1]
  binding: binds
V5-DNAJB6b Y53E (human) [2]
  binding: binds
V5-DNAJB6b Y53F (human) [3]
  binding: binds
